The inconclusive results got no clear call from the source; some entries with a clear call stand among them for comparison. Potencies beside an inconclusive call are fits to weak or partial responses and may not hold up. The source made the active and inactive calls. Calls follow the shape of the dose curve; as a rule, active = well fitted curve in the direction sought with a large enough effect; inconclusive = small, poorly fitted or top-dose-only effect, or another doubt; inactive = no such curve, though single readings can be large or run the other way.
molecular target: Runt-related transcription factor 1 (Homo sapiens) + Core-binding factor subunit beta (Homo sapiens) (UniProt Q01196+Q13951); assay: qHTS Assay for Compounds Blocking the Interaction Between CBF-beta and RUNX1 for the Treatment of Acute Myeloid Leukemia: SAR for Probe; conditions: AlphaScreen CBFb-His/RUNX1-biotin binding, biochemical
Text: NIH Chemical Genomics Center [NCGC] NIH Molecular Libraries Probe Production centers Network [MLPCN] MLPCN Grant: X01MH083259-01 Assay Submitter (PI): Paul Liu NCGC Assay Overview: Core Binding Factor (CBF) abnormalities are associated with 20-25% of all acute myeloid leukemias (AML), of which 5-10% are further sub classified as acute myelomonocytic leukemia with eosinophilia, also known as M4Eo in the FAB classification scheme. This subtype of leukemia is usually associated with chromosome 16 inversion (p13:q22). Chromosome 16 inversion results in formation of the fusion oncogene CBFB-MYH11, which encodes the fusion protein CBF-beta-SMMHC. […] It has been hypothesized that the interference of CBF-beta and RUNX1 binding could have therapeutic implications for patients with CBF mediated leukemias. We developed a CBF-beta and RUNX1 binding assay in AlphaScreenTM format and optimized it for high throughput screening to search for inhibitors. The goal of this project is to screen MLPCN's compound collection (MLSMR) for identifying the inhibitors of the interaction between CBF-beta and RUNX1 proteins as research probes. If these probes work well in the animal models, the ultimate goal of this project is to development a new drug treatment for this disease. This assay can not be used to assess how apparent inhibitors interfere with protein binding, and whether inhibitors specifically bind to either protein. […]
NCGC Assay Protocol Summary: Step, Parameter, Description (1) Reagent, 3 uL CBFb-His/RUNX1-biotin mix incubated together for 20 minutes at room temperature (30 nM each) (2) Compound or control, 23 nL compound stock solution (3) Incubation, 15 minutes at Room temperature (4) Reagent, 1 uL 50 ng each of beads (Nickel beads and streptavidin beads) (5) Incubation, 90 minutes at Room temperature (6) Detection, […], Envision reader in AlphaScreenTM mode Keywords: MLSMR, MLPCN, NIH Roadmap, qHTS, NCGC, Core binding factor, CBF, CBF-beta, Acute myeloid leukemia

Amino acid sequences for entries named in this document (tags omitted).
UniProt Q01196, whole entry, looked up: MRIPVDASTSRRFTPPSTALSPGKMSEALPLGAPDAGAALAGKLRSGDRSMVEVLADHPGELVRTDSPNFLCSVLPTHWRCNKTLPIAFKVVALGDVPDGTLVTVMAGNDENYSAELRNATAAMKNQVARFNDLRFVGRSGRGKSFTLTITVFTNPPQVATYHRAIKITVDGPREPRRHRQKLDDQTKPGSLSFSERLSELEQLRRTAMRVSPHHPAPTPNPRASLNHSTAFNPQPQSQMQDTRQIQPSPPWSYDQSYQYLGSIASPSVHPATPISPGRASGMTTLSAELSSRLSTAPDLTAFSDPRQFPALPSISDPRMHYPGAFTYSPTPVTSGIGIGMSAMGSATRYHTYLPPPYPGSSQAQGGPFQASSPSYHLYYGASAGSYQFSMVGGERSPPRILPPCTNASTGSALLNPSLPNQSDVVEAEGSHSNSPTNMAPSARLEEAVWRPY
UniProt Q13951, whole entry, looked up: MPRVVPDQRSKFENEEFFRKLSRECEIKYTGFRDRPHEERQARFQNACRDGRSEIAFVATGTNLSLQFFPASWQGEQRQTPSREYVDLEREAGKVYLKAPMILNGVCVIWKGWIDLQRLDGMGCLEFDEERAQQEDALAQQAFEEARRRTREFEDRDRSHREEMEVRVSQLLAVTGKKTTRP

Structure (SMILES)	Potency
CCN(CC)CCN1C(=O)CN=C(c2ccc[nH]2)c2cc(Cl)ccc21	inconclusive: 30.7 µM [inhibitor, full curve]
CCN(CC)CCN1C(=O)CN=C(c2ccccn2)c2cc(Cl)ccc21	active: 21.7 µM
CN1C(=O)CN=C(c2ccc[nH]2)c2cc(Cl)ccc21 (tested in a mixture with another compound)	active: 109 µM
